Results on one molecule are retold here after PMC6292949.

These are yes or no findings as the source states them, for the method shown. Binding seen in cells or lysates may run through a third protein. A yes stands for co-enrichment or nearness to the bait. Other partners may have been found.

The assay concerns the target CBL bearing a One-STrEP-tag at its carboxyl-terminus (CBL-OST) (mouse (endogenous in thymocytes of gene-targeted mice)) (UniProt P22682). The assay is described as follows: affinity purification with mass spectrometry; OST affinity purification of endogenous CBL-OST from lysates of mouse thymocytes, unstimulated or stimulated for 30 s with anti-CD3 plus anti-CD4 antibodies; protein intensities compared with wild-type cells.

B1: Ubiquitin-associated and SH3 domain-containing protein A (UBASH3A) (protein, UniProt Q3V3E1 1-624)
chain: MAAGETQLYAKVSNKLKGRSTPSLLDPLLAMGFPTHTALKALAATGRKTAEAAADWLHGHCNDPSLDDPIPQEYALFLCPTGPLLEKLQEFWRESRRQCAKNRAHEVFPHVTLCDFFTCEDQKVECLYEALRRAGDRILGSFPTLVPLVLHSSISYLGFFINDSPADAIREFAMAFATEAAVLADCTIKPCTKQLHLTLAHKFYPHHQRTLEQLAKAIQPSHSCQWTAALYSRDMRFVHYQTLKALFQYKPQNADELMLSAGDYIFVDPTQQEEASEGWAIGISHRTGCRGFLPENYTERANEADTWVKHRTYTFNLAMDLNSRKDFEASCRGNGEPHTPSMSKSVSSIQALQATISRRGILVVRHGERVDQVFGKSWLQQCTTADGKYYRPDLNFPRSLPRRSNGIKDFENDPPLSSCGIFQARLAGEALLDSGVRVTAVFASPALRCVQTAKHILEELKLEKKLKIRVEPGIFEWMKWEASKATLTFLTLEELKEANFNVDLDYRPALPRCSLMPAESYDQYVERCAVSMGQIINTCPQDMGITLIVSHSSALDSCTRPLLGLPPRECGDFAQLVRKIPSLGMCFCEENREDGKWDLVNPPVKTLTHGANSVFNWRNWISSN
In the case of B1, the binding result was “binds”.
